In the supplement of paper PMC12823440, “Inhibitors supercharge kinase turnover through native proteolytic circuits” (Nature, 2025):
Counter-ions that a name gives are not always drawn. Some of the results follow. The calls rarely recur for the same compound in another form.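 In K562 cells expressing nanoluciferase-fused kinases, luminescence was recorded at 4 h intervals between 2 and 18 h, normalized as percent of control with DMSO at 100% and a positive control at 0%. A significant (2 sigma) signal drop marks a time point as decreased. The authors' rule for a hit is not shown and takes in more than the number of time points.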

By UniProt entry, the sequences of proteins in these tests, tags left out. Where a name states a change or a piece, a line headed by the entry shows the natural chain unless it says otherwise.
UniProt O15530: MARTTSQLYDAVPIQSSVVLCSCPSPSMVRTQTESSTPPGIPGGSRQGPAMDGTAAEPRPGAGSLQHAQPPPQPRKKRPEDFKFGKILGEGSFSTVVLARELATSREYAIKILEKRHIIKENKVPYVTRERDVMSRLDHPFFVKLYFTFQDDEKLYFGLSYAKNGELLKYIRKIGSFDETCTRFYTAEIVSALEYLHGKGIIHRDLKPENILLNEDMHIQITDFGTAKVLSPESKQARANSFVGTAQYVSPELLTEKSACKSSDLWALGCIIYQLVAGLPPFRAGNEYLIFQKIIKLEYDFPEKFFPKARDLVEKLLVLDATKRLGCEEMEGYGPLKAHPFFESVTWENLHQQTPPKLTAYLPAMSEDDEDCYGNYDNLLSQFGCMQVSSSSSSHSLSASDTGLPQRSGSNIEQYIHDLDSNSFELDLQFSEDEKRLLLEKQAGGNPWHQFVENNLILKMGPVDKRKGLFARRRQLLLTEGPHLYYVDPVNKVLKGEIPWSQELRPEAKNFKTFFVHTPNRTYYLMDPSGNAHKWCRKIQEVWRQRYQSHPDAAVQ
UniProt P42356, whole entry, looked up: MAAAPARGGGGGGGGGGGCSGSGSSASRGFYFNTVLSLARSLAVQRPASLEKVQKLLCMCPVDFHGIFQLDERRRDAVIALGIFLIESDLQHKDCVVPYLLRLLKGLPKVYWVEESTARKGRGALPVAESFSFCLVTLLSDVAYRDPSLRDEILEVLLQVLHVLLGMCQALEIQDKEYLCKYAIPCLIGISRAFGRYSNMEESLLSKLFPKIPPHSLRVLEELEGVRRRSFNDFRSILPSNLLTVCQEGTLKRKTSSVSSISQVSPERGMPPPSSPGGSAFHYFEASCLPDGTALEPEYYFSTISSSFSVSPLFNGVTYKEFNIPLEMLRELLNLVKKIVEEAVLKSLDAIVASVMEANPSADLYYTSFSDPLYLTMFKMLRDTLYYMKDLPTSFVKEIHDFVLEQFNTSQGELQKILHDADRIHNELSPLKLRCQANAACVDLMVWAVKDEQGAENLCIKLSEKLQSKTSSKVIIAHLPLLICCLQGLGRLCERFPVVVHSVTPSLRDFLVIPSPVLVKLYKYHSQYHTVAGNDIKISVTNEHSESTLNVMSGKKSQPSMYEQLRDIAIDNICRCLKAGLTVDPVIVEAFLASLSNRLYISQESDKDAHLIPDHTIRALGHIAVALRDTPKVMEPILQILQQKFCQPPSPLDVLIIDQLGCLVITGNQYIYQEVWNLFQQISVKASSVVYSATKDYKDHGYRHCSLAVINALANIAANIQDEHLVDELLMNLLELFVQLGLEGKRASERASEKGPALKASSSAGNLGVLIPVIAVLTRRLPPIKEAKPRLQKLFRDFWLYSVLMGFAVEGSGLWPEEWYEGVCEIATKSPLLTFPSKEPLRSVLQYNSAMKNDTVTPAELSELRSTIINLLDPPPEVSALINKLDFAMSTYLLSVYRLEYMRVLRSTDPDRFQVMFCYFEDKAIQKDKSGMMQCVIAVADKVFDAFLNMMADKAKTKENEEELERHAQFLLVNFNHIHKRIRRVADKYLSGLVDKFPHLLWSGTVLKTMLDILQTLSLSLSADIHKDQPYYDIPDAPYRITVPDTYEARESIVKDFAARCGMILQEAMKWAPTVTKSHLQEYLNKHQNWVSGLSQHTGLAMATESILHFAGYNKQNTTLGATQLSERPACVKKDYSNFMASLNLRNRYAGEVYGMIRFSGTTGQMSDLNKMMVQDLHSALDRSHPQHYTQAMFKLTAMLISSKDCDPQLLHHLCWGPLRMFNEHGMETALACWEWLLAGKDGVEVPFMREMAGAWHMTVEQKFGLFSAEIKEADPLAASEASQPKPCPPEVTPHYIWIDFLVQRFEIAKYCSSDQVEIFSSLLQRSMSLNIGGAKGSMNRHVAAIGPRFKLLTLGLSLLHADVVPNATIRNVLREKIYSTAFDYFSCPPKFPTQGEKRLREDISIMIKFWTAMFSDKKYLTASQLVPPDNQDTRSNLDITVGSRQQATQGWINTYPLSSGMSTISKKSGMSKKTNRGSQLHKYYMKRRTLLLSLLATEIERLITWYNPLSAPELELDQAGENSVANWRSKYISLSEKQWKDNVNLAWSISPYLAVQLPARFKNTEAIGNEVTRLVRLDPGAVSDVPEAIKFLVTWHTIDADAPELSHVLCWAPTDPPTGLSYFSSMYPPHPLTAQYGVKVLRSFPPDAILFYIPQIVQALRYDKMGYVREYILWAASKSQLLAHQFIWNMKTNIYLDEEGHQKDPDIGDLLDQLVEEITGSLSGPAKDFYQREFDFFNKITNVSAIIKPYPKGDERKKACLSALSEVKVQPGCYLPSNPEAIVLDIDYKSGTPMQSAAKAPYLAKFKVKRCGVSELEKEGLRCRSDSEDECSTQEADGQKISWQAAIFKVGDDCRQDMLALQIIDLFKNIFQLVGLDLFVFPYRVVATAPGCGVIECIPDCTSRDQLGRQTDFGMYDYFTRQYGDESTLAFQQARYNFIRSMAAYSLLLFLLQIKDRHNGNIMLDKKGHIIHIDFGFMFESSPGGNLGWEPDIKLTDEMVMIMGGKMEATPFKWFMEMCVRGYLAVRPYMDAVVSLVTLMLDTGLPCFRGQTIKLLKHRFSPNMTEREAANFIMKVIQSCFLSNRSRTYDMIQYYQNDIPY
UniProt P53350, whole entry: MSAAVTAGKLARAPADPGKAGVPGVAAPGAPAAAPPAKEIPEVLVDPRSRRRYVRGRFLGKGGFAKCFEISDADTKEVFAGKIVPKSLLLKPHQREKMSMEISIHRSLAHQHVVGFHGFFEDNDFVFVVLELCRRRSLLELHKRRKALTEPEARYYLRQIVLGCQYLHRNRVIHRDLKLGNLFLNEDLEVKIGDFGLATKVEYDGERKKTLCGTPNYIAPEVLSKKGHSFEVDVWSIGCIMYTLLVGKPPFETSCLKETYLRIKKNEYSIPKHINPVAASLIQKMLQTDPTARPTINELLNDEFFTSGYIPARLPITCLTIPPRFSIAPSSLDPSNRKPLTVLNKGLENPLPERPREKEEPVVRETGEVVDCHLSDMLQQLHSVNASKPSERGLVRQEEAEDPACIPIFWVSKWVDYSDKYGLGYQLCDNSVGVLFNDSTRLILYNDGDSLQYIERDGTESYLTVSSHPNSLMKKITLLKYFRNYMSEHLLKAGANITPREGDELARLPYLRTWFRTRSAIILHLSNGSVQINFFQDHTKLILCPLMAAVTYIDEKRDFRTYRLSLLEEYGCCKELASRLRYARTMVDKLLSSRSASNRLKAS
UniProt Q13131: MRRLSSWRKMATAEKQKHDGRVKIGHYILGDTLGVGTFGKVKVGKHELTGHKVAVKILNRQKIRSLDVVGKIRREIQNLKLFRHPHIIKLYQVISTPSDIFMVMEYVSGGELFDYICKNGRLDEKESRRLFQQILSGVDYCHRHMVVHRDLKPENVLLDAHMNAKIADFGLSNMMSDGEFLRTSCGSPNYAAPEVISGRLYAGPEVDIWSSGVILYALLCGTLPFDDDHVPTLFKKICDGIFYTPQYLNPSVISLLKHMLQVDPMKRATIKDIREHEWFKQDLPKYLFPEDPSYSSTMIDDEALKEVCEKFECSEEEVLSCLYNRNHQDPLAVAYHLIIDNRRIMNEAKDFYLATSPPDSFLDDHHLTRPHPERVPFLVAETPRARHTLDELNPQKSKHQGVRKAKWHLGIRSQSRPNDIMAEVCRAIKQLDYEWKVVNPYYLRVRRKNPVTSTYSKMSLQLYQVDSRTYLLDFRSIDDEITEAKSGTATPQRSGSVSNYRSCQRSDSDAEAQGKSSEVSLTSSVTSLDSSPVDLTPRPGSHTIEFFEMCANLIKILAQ
UniProt Q05397, whole entry, looked up: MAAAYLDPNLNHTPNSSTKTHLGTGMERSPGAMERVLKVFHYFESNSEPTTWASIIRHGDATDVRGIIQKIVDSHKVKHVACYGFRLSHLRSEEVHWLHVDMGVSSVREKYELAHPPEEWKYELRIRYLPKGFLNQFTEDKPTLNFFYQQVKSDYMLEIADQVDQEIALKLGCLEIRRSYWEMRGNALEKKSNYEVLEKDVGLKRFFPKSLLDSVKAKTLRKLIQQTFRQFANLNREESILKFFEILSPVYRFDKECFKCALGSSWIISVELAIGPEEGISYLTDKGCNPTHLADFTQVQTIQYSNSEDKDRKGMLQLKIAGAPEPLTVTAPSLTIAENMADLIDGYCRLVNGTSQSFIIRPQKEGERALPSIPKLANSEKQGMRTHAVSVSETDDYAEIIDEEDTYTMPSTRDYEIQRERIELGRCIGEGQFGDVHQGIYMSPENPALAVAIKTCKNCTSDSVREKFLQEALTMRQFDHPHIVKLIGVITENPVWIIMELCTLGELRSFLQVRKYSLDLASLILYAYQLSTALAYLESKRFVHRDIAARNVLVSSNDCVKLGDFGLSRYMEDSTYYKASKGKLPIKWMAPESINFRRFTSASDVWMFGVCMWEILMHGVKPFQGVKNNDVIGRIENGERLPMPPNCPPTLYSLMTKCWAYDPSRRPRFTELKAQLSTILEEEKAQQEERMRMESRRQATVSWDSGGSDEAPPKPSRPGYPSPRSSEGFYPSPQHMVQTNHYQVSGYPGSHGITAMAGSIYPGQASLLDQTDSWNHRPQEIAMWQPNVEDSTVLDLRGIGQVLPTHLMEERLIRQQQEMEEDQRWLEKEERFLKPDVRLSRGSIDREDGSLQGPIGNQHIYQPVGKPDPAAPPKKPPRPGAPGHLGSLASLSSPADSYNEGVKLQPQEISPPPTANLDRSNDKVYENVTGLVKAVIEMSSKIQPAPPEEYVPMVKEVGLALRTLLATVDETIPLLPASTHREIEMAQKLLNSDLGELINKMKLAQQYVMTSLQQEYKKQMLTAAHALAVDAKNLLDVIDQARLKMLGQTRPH
UniProt Q14289, whole entry, looked up: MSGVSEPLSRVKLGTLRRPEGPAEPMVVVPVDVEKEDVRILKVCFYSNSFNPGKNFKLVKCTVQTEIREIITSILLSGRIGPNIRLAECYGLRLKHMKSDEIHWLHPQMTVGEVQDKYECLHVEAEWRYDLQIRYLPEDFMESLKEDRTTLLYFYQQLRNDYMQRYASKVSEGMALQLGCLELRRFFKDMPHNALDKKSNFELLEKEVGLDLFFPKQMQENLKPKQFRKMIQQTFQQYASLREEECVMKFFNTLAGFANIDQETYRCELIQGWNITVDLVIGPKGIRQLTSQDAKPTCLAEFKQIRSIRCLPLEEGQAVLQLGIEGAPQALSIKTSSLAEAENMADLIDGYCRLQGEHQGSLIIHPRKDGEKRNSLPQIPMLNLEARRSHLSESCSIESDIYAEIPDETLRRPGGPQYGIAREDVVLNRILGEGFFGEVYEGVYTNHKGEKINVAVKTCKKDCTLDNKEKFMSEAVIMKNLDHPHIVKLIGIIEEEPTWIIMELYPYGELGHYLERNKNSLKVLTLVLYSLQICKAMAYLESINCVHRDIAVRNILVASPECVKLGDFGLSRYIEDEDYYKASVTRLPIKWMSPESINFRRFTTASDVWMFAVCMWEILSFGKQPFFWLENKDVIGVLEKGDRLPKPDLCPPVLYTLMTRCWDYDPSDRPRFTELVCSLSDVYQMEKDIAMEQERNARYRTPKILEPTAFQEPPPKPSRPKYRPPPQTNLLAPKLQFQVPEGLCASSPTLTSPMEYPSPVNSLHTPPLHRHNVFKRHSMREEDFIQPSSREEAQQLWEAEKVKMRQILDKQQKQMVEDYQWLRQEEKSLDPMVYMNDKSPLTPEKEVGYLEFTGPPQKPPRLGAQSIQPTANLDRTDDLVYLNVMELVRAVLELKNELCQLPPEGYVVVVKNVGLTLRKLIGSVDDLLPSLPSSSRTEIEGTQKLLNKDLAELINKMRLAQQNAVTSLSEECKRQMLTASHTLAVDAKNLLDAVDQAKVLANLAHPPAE

Key:
Assay in all cases: kinase-Nluc reporter destabilization hit call (1 = scored as downregulated) (binary); higher = compound decreases kinase abundance
Details in all cases: K562; 2-18 h
PDPK1 = PDPK1 (UniProt O15530)
PIK4CA = PIK4CA (UniProt P42356)
PIK4CB = PIK4CB (UniProt Q9UBF8)
PLK1 = PLK1 (UniProt P53350)
PRKAA1 = PRKAA1 (UniProt Q13131)
PRKCA = PRKCA (UniProt P17252)
PTK2 = PTK2 (UniProt Q05397)
PTK2B = PTK2B (UniProt Q14289)
RAF1 = RAF1 (UniProt P04049)
[1] = biological target: RAF1_S257L (clone: RAF1_mut) (UniProt P04049)

Row | Compound | kinase-Nluc reporter destabilization hit call (PDPK1) | kinase-Nluc reporter destabilization hit call (PIK4CA) | kinase-Nluc reporter destabilization hit call (PIK4CB) | kinase-Nluc reporter destabilization hit call (PLK1) | kinase-Nluc reporter destabilization hit call (PRKAA1) | kinase-Nluc reporter destabilization hit call (PRKCA) | kinase-Nluc reporter destabilization hit call (PTK2) | kinase-Nluc reporter destabilization hit call (PTK2B) | kinase-Nluc reporter destabilization hit call (RAF1) | kinase-Nluc reporter destabilization hit call [1]
1 | CCCCCCCCCCCCCCCCOC[C@H](COP(=O)([O-])OCC[N+](C)(C)C)OC(C)=O (10 µM) | inactive: 0 | inactive: 0 | inactive: 0 | inactive: 0 | inactive: 0 | inactive: 0 | inactive: 0 | inactive: 0 | inactive: 0 | inactive: 0
2 | C=C[C@H]1CN2CC[C@]3(C(=O)Nc4ccccc43)[C@@H]2C[C@@H]1/C(=C\OC)C(=O)OC [Corynoxeine] (2 µM) | inactive: 0 | inactive: 0 | inactive: 0 | inactive: 0 | inactive: 0 | inactive: 0 | inactive: 0 | inactive: 0 | inactive: 0 | inactive: 0
3 | Cc1ccccc1-n1c(Cn2ncc3c(N)ncnc32)nc2cccc(C)c2c1=O (10 µM) | inactive: 0 | inactive: 0 | inactive: 0 | inactive: 0 | inactive: 0 | inactive: 0 | inactive: 0 | inactive: 0 | inactive: 0 | inactive: 0
4 | CC(=O)c1c(O)c(C)c(O)c(Cc2c(O)c3c(c(C(=O)/C=C/c4ccccc4)c2O)OC(C)(C)C=C3)c1O [Rottlerin] (2 µM) | inactive: 0 | inactive: 0 | inactive: 0 | inactive: 0 | inactive: 0 | inactive: 0 | inactive: 0 | inactive: 0 | inactive: 0 | inactive: 0
5 | C[C@H](Nc1ncnc2[nH]cnc12)c1nc2ccc(F)cc2c(=O)n1-c1ccccc1 [Acalisib] (10 µM) | inactive: 0 | inactive: 0 | inactive: 0 | inactive: 0 | inactive: 0 | inactive: 0 | inactive: 0 | inactive: 0 | inactive: 0 | inactive: 0
6 | O=C(O)c1sc2cc(Cl)ccc2c1Cl (10 µM) | inactive: 0 | inactive: 0 | inactive: 0 | inactive: 0 | inactive: 0 | inactive: 0 | inactive: 0 | inactive: 0 | inactive: 0 | inactive: 0
7 | O=C1C=CC[C@@H]2[C@H]3CCCN4CCC[C@@H](CN12)[C@@H]34 [Sophocarpine] (10 µM) | inactive: 0 | inactive: 0 | inactive: 0 | inactive: 0 | inactive: 0 | inactive: 0 | inactive: 0 | inactive: 0 | inactive: 0 | inactive: 0
8 | C[C@H]1CC[C@]2(NC1)O[C@H]1C[C@H]3[C@@H]4CC[C@H]5C[C@@H](O)CC[C@]5(C)[C@H]4CC[C@]3(C)[C@H]1[C@@H]2C [Tomatidine (hydrochloride)] (10 µM) | inactive: 0 | inactive: 0 | inactive: 0 | inactive: 0 | inactive: 0 | inactive: 0 | inactive: 0 | inactive: 0 | inactive: 0 | inactive: 0
9 | Cc1[nH]ncc1-c1cc2nc([C@H]3CC4CCN3CC4)[nH]c(=O)c2s1 [(R)-Simurosertib] (10 µM) | inactive: 0 | inactive: 0 | inactive: 0 | inactive: 0 | inactive: 0 | inactive: 0 | inactive: 0 | inactive: 0 | inactive: 0 | inactive: 0
10 | C[C@H]1CC[C@]2(NC1)O[C@H]1C[C@H]3[C@@H]4CC[C@H]5C[C@@H](O)CC[C@]5(C)[C@H]4CC[C@]3(C)[C@H]1[C@@H]2C [Tomatidine] (2 µM) | inactive: 0 | inactive: 0 | inactive: 0 | inactive: 0 | inactive: 0 | inactive: 0 | inactive: 0 | inactive: 0 | inactive: 0 | inactive: 0
11 | CC(=O)Oc1ccc(/C=C/c2cc(OC(C)=O)cc(OC(C)=O)c2)cc1 [Triacetylresveratrol] (10 µM) | inactive: 0 | inactive: 0 | inactive: 0 | inactive: 0 | inactive: 0 | inactive: 0 | inactive: 0 | inactive: 0 | inactive: 0 | inactive: 0
12 | C/C=C(/C)C(=O)O[C@H]1[C@@H]2[C@H](C)C(=O)O[C@@H]2C[C@@H](C)[C@@H]2C=CC(=O)[C@]21C [Brevilin A] (2.5 µM) | inactive: 0 | inactive: 0 | inactive: 0 | inactive: 0 | inactive: 0 | inactive: 0 | inactive: 0 | inactive: 0 | inactive: 0 | inactive: 0
13 | COc1ccc(N(C(=O)Oc2c(C)cccc2C)c2ccnc(Nc3ccc(N4CCN(C)CC4)cc3)n2)c(OC)c1 (2.5 µM) | inactive: 0 | inactive: 0 | inactive: 0 | inactive: 0 | inactive: 0 | inactive: 0 | inactive: 0 | inactive: 0 | inactive: 0 | inactive: 0
14 | O=c1ccc2cc(O[C@@H]3O[C@H](CO)[C@@H](O)[C@H](O)[C@H]3O)c(O)cc2o1 [Esculin] (10 µM) | inactive: 0 | inactive: 0 | inactive: 0 | inactive: 0 | inactive: 0 | inactive: 0 | inactive: 0 | inactive: 0 | inactive: 0 | inactive: 0
15 | COc1ccc2c(c1)[nH]c1c(C)nccc12 [Harmine] (10 µM) | inactive: 0 | inactive: 0 | inactive: 0 | inactive: 0 | inactive: 0 | inactive: 0 | inactive: 0 | inactive: 0 | inactive: 0 | inactive: 0
16 | CC(=O)OC(C)(C)/C=C/C(=O)[C@](C)(O)[C@H]1[C@H](O)C[C@@]2(C)[C@@H]3CC=C4[C@@H](C=C(O)C(=O)C4(C)C)[C@]3(C)C(=O)C[C@]12C [Cucurbitacin E] (2.5 µM) | active: 1 | inactive: 0 | inactive: 0 | inactive: 0 | inactive: 0 | inactive: 0 | inactive: 0 | inactive: 0 | inactive: 0 | inactive: 0
17 | O=C1C=CC[C@@H]2[C@H]3CCCN4CCC[C@@H](CN12)[C@@H]34 [Sophocarpine (monohydrate)] (2.5 µM) | inactive: 0 | inactive: 0 | inactive: 0 | inactive: 0 | inactive: 0 | inactive: 0 | inactive: 0 | inactive: 0 | inactive: 0 | inactive: 0
18 | CCOC(=O)c1c(/C(C#N)=C\N)c2ccc(Cl)c(Cl)c2n1C (10 µM) | inactive: 0 | inactive: 0 | inactive: 0 | inactive: 0 | inactive: 0 | inactive: 0 | inactive: 0 | inactive: 0 | inactive: 0 | inactive: 0
19 | CCN1CCN(C(=O)Cc2ccc(Nc3ncc(F)c(Nc4ccc(C(=O)Nc5ccccc5Cl)cc4)n3)cc2)CC1 (2.5 µM) | inactive: 0 | inactive: 0 | inactive: 0 | inactive: 0 | inactive: 0 | inactive: 0 | inactive: 0 | inactive: 0 | inactive: 0 | inactive: 0
20 | COc1ccc2c(c1OC)C(OC)N(C)c1c-2ccc2cc3c(cc12)OCO3 (stereo not given) [Angoline] (10 µM) | inactive: 0 | inactive: 0 | inactive: 0 | inactive: 0 | inactive: 0 | inactive: 0 | inactive: 0 | inactive: 0 | inactive: 0 | inactive: 0
21 | O=C(/C=C/c1ccccc1)OC[C@H]1O[C@@H](O[C@@H]2OC=C[C@H]3[C@H](O)[C@@H]4O[C@]4(CO)[C@@H]23)[C@H](O)[C@@H](O)[C@@H]1O [Picroside I] (10 µM) | inactive: 0 | inactive: 0 | inactive: 0 | inactive: 0 | inactive: 0 | inactive: 0 | inactive: 0 | inactive: 0 | inactive: 0 | inactive: 0
22 | CC(C)(C)c1cc(C=C(C#N)C#N)cc(Br)c1O (2.5 µM) | inactive: 0 | inactive: 0 | inactive: 0 | inactive: 0 | inactive: 0 | inactive: 0 | inactive: 0 | inactive: 0 | inactive: 0 | inactive: 0
23 | COc1cc2c(cc1F)C(c1ccccc1Cl)=Nc1c(n[nH]c1C)N2 (0.5 µM) | inactive: 0 | inactive: 0 | inactive: 0 | inactive: 0 | inactive: 0 | inactive: 0 | inactive: 0 | inactive: 0 | inactive: 0 | inactive: 0
24 | CC(C)=CC[C@@H](OC(=O)CC(C)(C)O)C1=CC(=O)c2c(O)ccc(O)c2C1=O [β-Hydroxyisovalerylshikonin] (2.5 µM) | inactive: 0 | inactive: 0 | inactive: 0 | inactive: 0 | inactive: 0 | inactive: 0 | inactive: 0 | inactive: 0 | inactive: 0 | inactive: 0
25 | NCCc1cn(S(=O)(=O)c2c(Cl)nc3sccn23)c2ccccc12 (10 µM) | inactive: 0 | inactive: 0 | inactive: 0 | inactive: 0 | inactive: 0 | inactive: 0 | inactive: 0 | inactive: 0 | inactive: 0 | inactive: 0
26 | CCCCNc1nc(N)c2[nH]c(=O)n(Cc3ccc(C)nc3)c2n1 (10 µM) | inactive: 0 | inactive: 0 | inactive: 0 | inactive: 0 | inactive: 0 | inactive: 0 | inactive: 0 | inactive: 0 | inactive: 0 | inactive: 0
27 | C[C@H]1CC[C@]2(NC1)O[C@H]1C[C@H]3[C@@H]4CC[C@H]5C[C@@H](O[C@@H]6O[C@H](CO)[C@H](O[C@@H]7O[C@H](CO)[C@@H](O)[C@H](O[C@@H]8OC[C@@H](O)[C@H](O)[C@H]8O)[C@H]7O[C@@H]7O[C@H](CO)[C@@H](O)[C@H](O)[C@H]7O)[C@H](O)[C@H]6O)CC[C@]5(C)[C@H]4CC[C@]3(C)[C@H]1[C@@H]2C [Tomatine] (2.5 µM) | inactive: 0 | inactive: 0 | inactive: 0 | inactive: 0 | inactive: 0 | inactive: 0 | inactive: 0 | inactive: 0 | inactive: 0 | inactive: 0
28 | CN(C)C(=O)c1ccc(Cn2c(C(=O)O)cc3c(Br)cc(Sc4ccc(Cl)c(Cl)c4)cc32)cc1 [Rheb inhibitor NR1] (10 µM) | inactive: 0 | inactive: 0 | inactive: 0 | inactive: 0 | inactive: 0 | inactive: 0 | inactive: 0 | inactive: 0 | inactive: 0 | inactive: 0

Looked up one by one from the list above (two):
Row | Compound | kinase-Nluc reporter destabilization hit call (PDPK1) | kinase-Nluc reporter destabilization hit call (PIK4CA) | kinase-Nluc reporter destabilization hit call (PIK4CB) | kinase-Nluc reporter destabilization hit call (PLK1) | kinase-Nluc reporter destabilization hit call (PRKAA1) | kinase-Nluc reporter destabilization hit call (PRKCA) | kinase-Nluc reporter destabilization hit call (PTK2) | kinase-Nluc reporter destabilization hit call (PTK2B) | kinase-Nluc reporter destabilization hit call (RAF1) | kinase-Nluc reporter destabilization hit call [1]
12 | C/C=C(/C)C(=O)O[C@H]1[C@@H]2[C@H](C)C(=O)O[C@@H]2C[C@@H](C)[C@@H]2C=CC(=O)[C@]21C [Brevilin A] (2.5 µM) | inactive: 0 | inactive: 0 | inactive: 0 | inactive: 0 | inactive: 0 | inactive: 0 | inactive: 0 | inactive: 0 | inactive: 0 | inactive: 0
20 | COc1ccc2c(c1OC)C(OC)N(C)c1c-2ccc2cc3c(cc12)OCO3 (stereo not given) [Angoline] (10 µM) | inactive: 0 | inactive: 0 | inactive: 0 | inactive: 0 | inactive: 0 | inactive: 0 | inactive: 0 | inactive: 0 | inactive: 0 | inactive: 0
